According to PubChem BioAssay AID504467 (National Center for Advancing Translational Sciences (NCATS), 2011):
About 7,700 (2.3%) of roughly 330,000 compounds were called active. This list was built around the results that the source calls inconclusive (neither active nor inactive); the mix of calls is not that of the screen. The call rests on the fitted dose curve; in most records, active means well fitted inhibition curve with a large enough effect; inconclusive means small, poorly fitted or top-dose-only effect, or effect the other way; inactive means flat fitted curve, though single readings scatter. A potency beside an inconclusive call is a rough fit, not a confirmed value.

Test: qHTS screen for small molecules that inhibit ELG1-dependent DNA repair in human embryonic kidney (HEK293T) cells expressing luciferase-tagged ELG1; further: nearly all actives have a fitted effect of over 55% in size
Conditions: HEK293T ELG1-luciferase reporter, luminescence, 16 h, DNA damage induced by 5-fluorouridine; activity change, negative = inhibition: at 46.1 µM (top of the series)
Method in brief: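 Step one: seed 2,000 cells per well. Step two: pin-transfer compound or DMSO alongside 5-fluorouridine. Step three: incubate 16 hr, 37 °C, 5% CO2. Step four: add ONE-Glo, wait 30 min, read luminescence.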
On the % scale 0 is the no-effect control and ±100 the full control effect; potency means the concentration at half of the fitted maximal effect.

Row | SMILES | Potency | activity change, negative = inhibition
1 | C[C@H]1COC(=O)[C@H](CC(=O)OC(C)(C)C)C/C=C\C[C@@H](CC(=O)NCCO)C(=O)N1 | inconclusive: 13 µM [activator, partial curve, poor fit] | 
2 | O=C(c1ccc(Cl)cc1)N1CCN(c2ccnc3cc(Cl)ccc23)CC1 | inconclusive: 29.1 µM [inhibitor, single point] | 
3 | CC1=NC(C(F)(F)F)(C(F)(F)F)C(C#N)=C(C)N1 |  | inactive: 4.97%
4 | COc1cc(C2CC(=O)N(c3ccc(C)cc3)C(=O)C2)cc(OC)c1OC |  | inactive: 10.9%
5 | Cc1c(N=Nc2ccc(N(C)C)cc2)c(=O)n(-c2ccccc2)n1C | inconclusive: 18.3 µM [activator, partial curve] | 
6 | CN(c1ccccc1)S(=O)(=O)c1cccc(NC(=O)CSc2nnc(N)s2)c1 | inconclusive: 14.6 µM [inhibitor, partial curve] | 
7 | O=C(CSc1nnc(C2CC2)n1C1CC1)c1cccs1 | inconclusive: 16.4 µM [activator, partial curve] | 
8 | Cc1c(C)c2ccc(OCC(=O)N(C)C)c(C)c2oc1=O | inconclusive: 32.6 µM [activator, single point] | 
9 | O=C(COC(=O)c1cc([N+](=O)[O-])ccc1NCCO)c1ccc(Cl)cc1 | inconclusive: 16.4 µM [inhibitor, single point] | 
10 | Cc1ccc(-c2csc3ncn(Cc4ccc(C(=O)O)cc4)c(=O)c23)cc1C | inconclusive: 29.1 µM [inhibitor, single point] | 
11 | CCOc1ccccc1N(CC(=O)N1CCC(C)CC1)S(=O)(=O)c1ccc(C)cc1 |  | inactive: -2.64%
12 | COc1cc(SC)ccc1C(=O)Nc1ccccc1 | inconclusive: 8.2 µM [activator, partial curve] | 
13 | Cc1ccccc1-n1c(C)cc(/C=N/Nc2ccc([N+](=O)[O-])cn2)c1C | inconclusive: 4.11 µM [activator, full curve] | 
14 | Cc1sc2c(c1C)c(=O)nc1n2Cc2ccccc2-1 | inconclusive: 23.1 µM [activator, single point] | 
15 | CCc1ccc(C(=O)NC(=S)Nc2ccc3c(c2)OCCO3)cc1 | inconclusive: 7.31 µM [activator, partial curve] | 
16 | O=C(C1=C[C@@H](C2CCCCC2)C[C@@H](OCc2ccc(CO)cc2)O1)N1CCOCC1 |  | inactive: -9.08%
17 | O=C(CSc1ccc(-c2ccccc2)nn1)c1ccccc1 | inconclusive: 16.4 µM [activator, partial curve] | 
18 | CN(C)c1ccc(N=Cc2ccco2)cc1 | inconclusive: 10 µM [activator, partial curve] | 
19 | COc1ccc2c(c1)/C(=N/OC(=O)c1cccs1)CCC2 | inconclusive: 4.61 µM [inhibitor, partial curve, poor fit] | 
20 | Cc1ccccc1C(=O)O/N=C1\CCS(=O)(=O)c2sccc21 | inconclusive: 7.31 µM [activator, partial curve] | 
21 | CCc1nc(SCC(=O)N2CCC(Cc3ccccc3)CC2)c2c(=O)n(C)c(=O)n(C)c2n1 |  | inactive: 15.7%
22 | CCOc1ccc(Cn2c(=O)sc3ccccc32)cc1OC | inconclusive: 29.1 µM [inhibitor, partial curve, poor fit] | 

Row | SMILES | Potency | activity change, negative = inhibition
23 | Cc1cccc(C(=O)Nc2ccccc2NC(=O)c2cccc(C)c2)c1 | inconclusive: 20.6 µM [inhibitor, partial curve, poor fit] | 
24 | CCOC(=O)C1CCCN(C(=O)c2ccc(Cn3c(=S)[nH]c4cc(C(=O)OC)ccc4c3=O)cc2)C1 (stereo not drawn) | inconclusive: 23.1 µM [inhibitor, single point] | 
25 | CC(C)CNC(=S)NNC(=O)c1ccc(OC(F)F)cc1 | inconclusive: 32.6 µM [activator, partial curve, poor fit] | 
26 | CCCCCCCN1C2=NCCCN2c2ccccc21 | inconclusive: 13 µM [inhibitor, partial curve, poor fit] | 
27 | O=S(=O)(c1ccc(Cl)cc1)N1CCC(O)(CN2CCN(Cc3ccccc3)CC2)CC1 | inconclusive: 23.1 µM [inhibitor, single point] | 
28 | Cc1cc(N2CCN(C)CC2)nc2ccc(NC(=O)c3cccnc3Cl)cc12 |  | inactive: -1.38%
29 | Cn1c(N)c(-c2nc3cccnc3n2C)sc1=S | inconclusive: 5.17 µM [activator, full curve] | 
30 | COc1cccc(-c2c(-c3cc(OC)cc(OC)c3)n(C)c3ccc(-c4ccc(OC)nc4)cc23)c1 |  | inactive: -26%
31 | COc1ccc(S(=O)(=O)N(C)C)cc1NC(=O)Cc1ccc(S(=O)(=O)N2CCOCC2)s1 |  | inactive: -17.8%
32 | Cc1ccc(-c2nsc(SCC(=O)Nc3ccc4c(c3)OCO4)n2)cc1 | inconclusive: 20.6 µM [activator, single point] | 
33 | CC(=O)Nc1ccc(/C(C)=N/NC(=O)c2ccccc2Cl)cc1 | inconclusive: 18.4 µM [activator, partial curve] | 
34 | CN1CCN(C(=O)CCCN2C(=O)/C(=C/c3ccccc3)SC2=S)CC1 |  | inactive: -28%
35 | O=C(NCCCN1CCOCC1)c1cc(-c2cccs2)on1 | inconclusive: 23.1 µM [activator, partial curve] | 
36 | O=C(Cc1ccccc1)NCCn1ccc2ccccc21 |  | inactive: 5.87%
37 | CCN(CC)CCN(C(=O)c1cc2c(ccc3ccccc32)oc1=O)c1nc2cc3c(cc2s1)OCCO3 | inconclusive: 2.91 µM [activator, full curve] | 
38 | OC(c1cc(C(F)(F)F)nc2c(Cl)cc(Cl)cc12)C1CCCCN1 (stereo not drawn) | inconclusive: 16.4 µM [inhibitor, single point] | 
39 | CCOC(=O)C1CCN(Cc2cc(=O)oc3c(C)c(C)ccc23)CC1 | inconclusive: 18.3 µM [inhibitor, single point] | 
40 | COc1ccccc1NC(=S)N(CCN1CCCCCC1)Cc1cccs1 |  | inactive: 6.71%
41 | CCC(C(=O)O/N=C(\N)c1ccc(C)cc1)c1ccccc1 (stereo not drawn) | inconclusive: 29.1 µM [activator, partial curve, poor fit] | 
42 | Cc1ccc(C)c(Cn2c(=O)n(CCC(=O)NCc3ccco3)c(=O)c3ccccc32)c1 | inconclusive: 0.231 µM [activator, single point] | 
43 | CCc1c(C)[nH]n(-c2ccc(Oc3ccccc3)c(S(=O)(=O)O)c2)c1=O | inconclusive: 29.1 µM [inhibitor, single point] | 

Quoted at random: 3 records from the list, in no set order.
Row | SMILES | Potency | activity change, negative = inhibition
39 | CCOC(=O)C1CCN(Cc2cc(=O)oc3c(C)c(C)ccc23)CC1 | inconclusive: 18.3 µM [inhibitor, single point] | 
30 | COc1cccc(-c2c(-c3cc(OC)cc(OC)c3)n(C)c3ccc(-c4ccc(OC)nc4)cc23)c1 |  | inactive: -26%
42 | Cc1ccc(C)c(Cn2c(=O)n(CCC(=O)NCc3ccco3)c(=O)c3ccccc32)c1 | inconclusive: 0.231 µM [activator, single point] | 
